# Measurements: the supplement of paper PMC3334620
# The full ranking holds about 33,000 sequences; the median of “E-score (-0.5 to 0.5)” is about -0.0034, and the highest 2% start at about 0.25. The list shows a part of the results.
# Target: T1, Yap3 (UniProt P38749)
# T1 sequence: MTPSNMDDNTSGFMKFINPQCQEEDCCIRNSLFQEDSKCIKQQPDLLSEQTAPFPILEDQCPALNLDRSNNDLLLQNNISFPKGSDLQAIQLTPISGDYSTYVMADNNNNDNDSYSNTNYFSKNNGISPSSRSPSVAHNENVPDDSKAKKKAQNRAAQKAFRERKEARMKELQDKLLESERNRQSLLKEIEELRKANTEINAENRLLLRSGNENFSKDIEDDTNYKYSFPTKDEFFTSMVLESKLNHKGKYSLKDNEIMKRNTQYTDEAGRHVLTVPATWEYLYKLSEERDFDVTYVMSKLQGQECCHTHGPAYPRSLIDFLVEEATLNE
# Test: PBM E-score (8-mer binding enrichment) (E-score (-0.5 to 0.5)); higher = stronger / more preferred TF binding
# Details: protein concentration: 100 nM; construct: GST-full length
# Experimental: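 Universal 'all 10-mer' protein binding microarrays (Agilent AMADID 015681) probed with GST-tagged S. cerevisiae TFs (full-length or DBD) made by in vitro transcription/translation (PURExpress), about 100-200 nM. Bound TF was detected with fluorescent anti-GST. Each ungapped 8-mer (which stands for itself and its reverse complement) is scored by the PBM enrichment score (E-score), a modified Wilcoxon-Mann-Whitney statistic from -0.5 to +0.5, computed with the Universal PBM Analysis Suite. Scale: above 0.35 generally sequence-specific binding.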
row,Sequence,PBM E-score
1,CGCTCCCA,-0.0586
2,GACAGGGA,-0.0649
3,CGAGTTAG,0.124
4,CCCGTAGG,-0.203
5,AAAGCGTT,0.0759
6,ACACTTAG,0.0439
7,GCAGTGGA,0.119
8,GATTACGA,0.291
9,AGCGGGAC,-0.231
10,GAAAGCAC,0.112
11,ATGAATCG,0.0879
12,AAGGCTAA,0.0588
13,GACTGCCC,-0.225
14,GATGGAGC,-0.108
15,GCATAACC,-0.0827
16,ATACCCGG,-0.151
17,CACTGGGG,-0.286
18,CAGACAAA,0.126
19,ATGGAAAC,0.0456
20,GTTTGTAA,0.0859
21,CCCAGATC,-0.231
22,ACATTCTG,-0.0885
23,CAAGAGTC,-0.0614
24,AACCGCCC,-0.184
25,CACAATGC,0.0947

# Shown with tabs: entries from further up
row	Sequence	PBM E-score
4	CCCGTAGG	-0.203
5	AAAGCGTT	0.0759
9	AGCGGGAC	-0.231
10	GAAAGCAC	0.112
11	ATGAATCG	0.0879
20	GTTTGTAA	0.0859
25	CACAATGC	0.0947

# Next entries follow.

row,Sequence,PBM E-score
1,CCTGCAGA,0.0188
2,GCGTCGTA,0.068
3,AACTATCG,-0.00863
4,GCGAGATA,0.187
5,CTATGACC,-0.0341
6,TCGGACCA,-0.0438
7,ACGAGAGC,-0.201
8,ACTAGCTA,0.00272
9,AGGGCTAA,0.0284
10,CACGGCTA,-0.102
11,CTGGCCTA,-0.12
12,GAGCAACA,-0.151
13,CGATCAAG,-0.0493
14,AGTTACTA,0.19
15,GACTAGGA,0.0497
16,ACTACACG,0.0255
17,ATCTTTTG,-0.0206
18,AGTTCTTC,0.0089
19,CCTTTCGA,-0.0865
20,GCGCTTTA,0.104
21,CGCTTCAA,0.0858
22,GCTGACAC,-0.0348
23,CATTCGTA,0.101
24,AGGGGTCA,-0.211
25,TACTCTAA,0.13

row,Sequence,PBM E-score
1,ACATCATG,-0.0583
2,ATGGCCCG,-0.0698
3,AAGGCTCA,-0.136
4,AAGTTGCC,-0.0508
5,AATAGTAA,0.258
6,AGCGGGGG,-0.236
7,CAGGCGAA,-0.0562
8,ACTGGGAG,-0.157
9,CGGCGAGC,0.0519
10,GCGATAAA,0.174
11,AACGCGCT,-0.012
12,CCACTGGC,-0.155
13,GCAAATTA,0.262
14,CCTGCAAG,-0.231
15,CGAAGACA,-0.0295
16,AGGCACTG,0.0224
17,TGACGGAA,0.166
18,AGAGCCCT,-0.176
19,ACAACACG,0.17
20,CCATACGG,-0.0632
21,TTAGGCAA,-0.107
22,AATTACAA,0.151
23,AACATAAA,0.156
24,GGGGACGA,-0.18
25,AGATTTAT,0.0637

row,Sequence,PBM E-score
1,CATCTGGG,-0.0567
2,GCTTAGCC,-0.147
3,ACAATCTA,0.016
4,GGGATGCA,-0.105
5,AGACACGA,0.108
6,TGACTGAA,-0.00521
7,AACTAGAG,0.0154
8,ATCTACCG,0.143
9,ACGGCTTA,0.0716
10,CGCACACC,-0.06
11,GATCTAAA,0.0637
12,GGGAGCGA,-0.174
13,ATCACTCA,0.0665
14,ACTAGAGG,-0.271
15,CCGAGTGA,0.0249
16,GACTCGCC,-0.0971
17,GATACTCA,0.0287
18,ACGAAATG,0.145
19,AGCAGAGA,-0.0117
20,GGCGAAAA,0.256
21,AGCGCCGC,0.0174
22,GTCGTCGA,-0.118
23,CACCCGAA,0.0804
24,AATGCCGA,0.0462
25,AGAAGGCA,-0.115

row,Sequence,PBM E-score
1,CCGAGCAC,0.0323
2,CCATCGCG,0.106
3,GCATTTAA,0.187
4,GAAGTCCA,-0.159
5,GACTAGCA,-0.168
6,AATCGAAT,0.25
7,GCCCAGGA,-0.229
8,TAACTATA,0.16
9,GCGGCAGC,-0.154
10,CTGCCGCA,-0.103
11,CTATAATC,0.191
12,ACGCTGTA,0.119
13,ACGTAGGA,-0.0175
14,CTTTAGAA,0.0391
15,AATTTGTG,0.148
16,AAGGACAA,0.0635
17,GGCAAGCC,-0.225
18,AAACTTCT,0.15
19,TAGCGCAA,0.0958
20,GCGTATTA,0.148
21,GTAGCGCA,-0.0637
22,CCGGCTAA,0.1
23,AACGCACT,0.0215
24,CTGGGACA,-0.0507
25,ATTAGTCG,0.12

row,Sequence,PBM E-score
1,CACATCAG,-0.149
2,GGGTAGTA,0.0247
3,AGTACGCC,-0.283
4,ACGGTCTC,-0.179
5,CCTAACAC,0.191
6,CGGCTTAG,-0.138
7,ACTCCCTA,-0.147
8,GACTTACA,-0.0187
9,CACTAGTA,0.103
10,GATGCCTA,-0.197
11,GCGGTGCC,-0.263
12,CCCGCTAA,-0.195
13,TAAATCGA,0.151
14,ACCAGGCC,0.0362
15,CAGTGGGG,-0.264
16,GAGGAAAC,0.0241
17,CTGCTGTC,-0.146
18,ATCGAGTC,-0.0569
19,ACCTATAA,0.0216
20,AACAGATA,0.172
21,AGCGCGGG,0.0204
22,CAACATTG,0.115
23,CCGAAGCA,0.0705
24,CGTGACAG,-0.154
25,CACCACAC,0.096

row,Sequence,PBM E-score
1,ATCCGACA,0.0167
2,GACTTTCC,-0.0359
3,AGACGATG,0.0569
4,GCTGGATA,0.0666
5,ATCTGCAC,-0.0329
6,CATGTAGA,0.139
7,GGTGTATA,-0.162
8,AGTTTCGC,0.0657
9,ACCTTAAC,0.076
10,GATGCCAC,-0.201
11,ATTAAGAG,-0.0603
12,ACCAGCCC,-0.176
13,AACCGTCC,-0.213
14,CCTATATA,0.112
15,ACCCGACA,-0.0364
16,ATACGGGA,-0.138
17,CGATTGAC,0.0861
18,AGACTCCG,-0.0253
19,CAAGCTAA,-0.0766
20,ACGCCAGA,-0.0143
21,AAACAGTG,0.133
22,AGGGGAGG,-0.111
